## Melanoma cell counts after drug treatment

Drug key:
temozolomide, 2000 nM: Cn1nnc2c(C(N)=O)ncn2c1=O
FK866, 10 nM: O=C(/C=C/c1cccnc1)NCCCCC1CCN(C(=O)c2ccccc2)CC1
SNS-314, 0.8 nM: O=C(Nc1cccc(Cl)c1)Nc1ncc(CCNc2ncnc3ccsc23)s1
IMD-0354, 16 nM: O=C(Nc1cc(C(F)(F)F)cc(C(F)(F)F)c1)c1cc(Cl)ccc1O
bexarotene, 2000 nM: C=C(c1ccc(C(=O)O)cc1)c1cc2c(cc1C)C(C)(C)CCC2(C)C
CP-690550, 1000 nM: C[C@@H]1CCN(C(=O)CC#N)C[C@@H]1N(C)c1ncnc2[nH]ccc12
SNS-032, 10 nM: CC(C)(C)c1cnc(CSc2cnc(NC(=O)C3CCNCC3)s2)o1
vismodegib, 1000 nM: CS(=O)(=O)c1ccc(C(=O)Nc2ccc(Cl)c(-c3ccccn3)c2)c(Cl)c1
PF-04217903, 1000 nM: OCCn1cc(-c2cnc3nnn(Cc4ccc5ncccc5c4)c3n2)cn1
stibogluconate, 2000 nM: O=C(O)[C@@H]1[O][Sb](=[O])([O][Sb]2(=[O])[O][C@H]([C@H](O)CO)[C@H](O)[C@H](C(=O)O)[O]2)[O][C@H]([C@H](O)CO)[C@@H]1O (stereo partly specified)
PF-562271, 80 nM: CN(c1ncccc1CNc1nc(Nc2ccc3c(c2)CC(=O)N3)ncc1C(F)(F)F)S(C)(=O)=O
perifosine, 400 nM: CCCCCCCCCCCCCCCCCCOP(=O)([O-])OC1CC[N+](C)(C)CC1
nilutamide, 1000 nM: CC1(C)NC(=O)N(c2ccc([N+](=O)[O-])c(C(F)(F)F)c2)C1=O
tipifarnib, 10 nM: Cn1cncc1[C@@](N)(c1ccc(Cl)cc1)c1ccc2c(c1)c(-c1cccc(Cl)c1)cc(=O)n2C
lenalidomide, 1000 nM: Nc1cccc2c1CN(C1CCC(=O)NC1=O)C2=O (stereo unspecified)
STA-4783, 6 nM: CN(NC(=O)CC(=O)NN(C)C(=S)c1ccccc1)C(=S)c1ccccc1
vorinostat, 80 nM: O=C(CCCCCCC(=O)Nc1ccccc1)NO

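Human melanoma cells were exposed to two drugs together for 72 h in 1,536-well plates and read by automated microscopy after fixing and staining. Values are the number of DAPI-stained nuclei as a percentage of the DMSO control: 100 is no effect, lower means fewer cells. Every drug was used at one fixed concentration, the lower of two screened (a fifth of the higher). These are primary screening values without error estimates.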
This is part of the screen, not chosen by result.

Combination | A101D | A2058 | C32 | A375
lenalidomide and CP-690550 | 105 | 102 | 116 | 101
PF-04217903 and vismodegib | 113 | 105 | 108 | 102
tipifarnib and stibogluconate | 109 | 83.4 | 103 | 92.9
nilutamide and tipifarnib | 76.0 | 89.0 | 81.9 | 76.4
lenalidomide and vorinostat | 110 | 92.7 | 98.3 | 87.5
nilutamide and vismodegib | 95.4 | 103 | 93.0 | 81.3
SNS-314 and perifosine | 82.6 | 88.6 | 88.8 | 77.7
STA-4783 and stibogluconate | 93.6 | 97.4 | 113 | 38.9
vorinostat and PF-562271 | 92.5 | 77.3 | 85.5 | 93.8
SNS-032 and lenalidomide | 99.3 | 95.8 | 103 | 98.6
stibogluconate and vorinostat | 113 | 102 | 91.4 | 95.6
bexarotene and tipifarnib | 112 | 95.0 | 123 | 94.8
stibogluconate and PF-04217903 | 82.7 | 85.6 | 109 | 91.9
PF-562271 and tipifarnib | 77.2 | 79.3 | 88.1 | 88.7
PF-04217903 and temozolomide | 95.4 | 70.1 | 95.7 | 120
vismodegib and STA-4783 | 80.6 | 69.5 | 84.1 | 25.7
FK866 and vorinostat | 80.9 | 98.1 | 103 | 105
CP-690550 and perifosine | 81.2 | 77.2 | 99.3 | 65.1
vorinostat and vismodegib | 98.0 | 101 | 101 | 117
stibogluconate and nilutamide | 110 | 94.5 | 94.4 | 109
IMD-0354 and PF-04217903 | 102 | 91.8 | 88.7 | 97.4
temozolomide and CP-690550 | 95.5 | 90.0 | 96.3 | 84.8
IMD-0354 and tipifarnib | 78.8 | 93.4 | 95.0 | 82.6
vismodegib and SNS-314 | 98.5 | 99.1 | 87.0 | 110
vismodegib and tipifarnib | 109 | 80.7 | 101 | 76.5
vorinostat and bexarotene | 109 | 96.2 | 86.9 | 119
SNS-314 and IMD-0354 | 89.3 | 101 | 99.8 | 105
nilutamide and temozolomide | 86.1 | 73.8 | 87.8 | 89.8
bexarotene and STA-4783 | 80.5 | 58.6 | 76.9 | 25.9
SNS-032 and bexarotene | 111 | 105 | 105 | 109
perifosine and PF-04217903 | 68.7 | 69.3 | 106 | 26.1
vorinostat and perifosine | 115 | 75.0 | 119 | 68.9
nilutamide and PF-562271 | 92.4 | 97.6 | 98.4 | 109
STA-4783 and perifosine | 72.5 | 90.6 | 99.2 | 34.4
SNS-314 and FK866 | 84.8 | 94.9 | 113 | 97.4
temozolomide and SNS-032 | 91.9 | 75.9 | 88.8 | 78.3
CP-690550 and vismodegib | 91.2 | 94.7 | 98.6 | 112
STA-4783 and FK866 | 69.7 | 56.5 | 62.8 | 15.6
perifosine and nilutamide | 94.1 | 67.8 | 93.1 | 4.6
STA-4783 and lenalidomide | 75.9 | 90.6 | 81.2 | 22.1

The last 5 entries again:

{"combination": "temozolomide and SNS-032", "A101D": 91.9, "A2058": 75.9, "C32": 88.8, "A375": 78.3}
{"combination": "CP-690550 and vismodegib", "A101D": 91.2, "A2058": 94.7, "C32": 98.6, "A375": 112}
{"combination": "STA-4783 and FK866", "A101D": 69.7, "A2058": 56.5, "C32": 62.8, "A375": 15.6}
{"combination": "perifosine and nilutamide", "A101D": 94.1, "A2058": 67.8, "C32": 93.1, "A375": 4.6}
{"combination": "STA-4783 and lenalidomide", "A101D": 75.9, "A2058": 90.6, "C32": 81.2, "A375": 22.1}

Data from the primary screen of doi:10.1371/journal.pone.0140310, rounded.